Test results taken from US20150291695A1 (CANCER RESEARCH TECHNOLOGY, published 2015).
No constants are given. Whether binding was seen depends on the method and setting. Some results given as binding are weak or reduced against the parent protein; the word gives no strength.

By UniProt entry, the sequences of proteins in these tests, tags left out. Where a name states a change or a piece, a line headed by the entry shows the natural chain unless it says otherwise.
UniProt P06756: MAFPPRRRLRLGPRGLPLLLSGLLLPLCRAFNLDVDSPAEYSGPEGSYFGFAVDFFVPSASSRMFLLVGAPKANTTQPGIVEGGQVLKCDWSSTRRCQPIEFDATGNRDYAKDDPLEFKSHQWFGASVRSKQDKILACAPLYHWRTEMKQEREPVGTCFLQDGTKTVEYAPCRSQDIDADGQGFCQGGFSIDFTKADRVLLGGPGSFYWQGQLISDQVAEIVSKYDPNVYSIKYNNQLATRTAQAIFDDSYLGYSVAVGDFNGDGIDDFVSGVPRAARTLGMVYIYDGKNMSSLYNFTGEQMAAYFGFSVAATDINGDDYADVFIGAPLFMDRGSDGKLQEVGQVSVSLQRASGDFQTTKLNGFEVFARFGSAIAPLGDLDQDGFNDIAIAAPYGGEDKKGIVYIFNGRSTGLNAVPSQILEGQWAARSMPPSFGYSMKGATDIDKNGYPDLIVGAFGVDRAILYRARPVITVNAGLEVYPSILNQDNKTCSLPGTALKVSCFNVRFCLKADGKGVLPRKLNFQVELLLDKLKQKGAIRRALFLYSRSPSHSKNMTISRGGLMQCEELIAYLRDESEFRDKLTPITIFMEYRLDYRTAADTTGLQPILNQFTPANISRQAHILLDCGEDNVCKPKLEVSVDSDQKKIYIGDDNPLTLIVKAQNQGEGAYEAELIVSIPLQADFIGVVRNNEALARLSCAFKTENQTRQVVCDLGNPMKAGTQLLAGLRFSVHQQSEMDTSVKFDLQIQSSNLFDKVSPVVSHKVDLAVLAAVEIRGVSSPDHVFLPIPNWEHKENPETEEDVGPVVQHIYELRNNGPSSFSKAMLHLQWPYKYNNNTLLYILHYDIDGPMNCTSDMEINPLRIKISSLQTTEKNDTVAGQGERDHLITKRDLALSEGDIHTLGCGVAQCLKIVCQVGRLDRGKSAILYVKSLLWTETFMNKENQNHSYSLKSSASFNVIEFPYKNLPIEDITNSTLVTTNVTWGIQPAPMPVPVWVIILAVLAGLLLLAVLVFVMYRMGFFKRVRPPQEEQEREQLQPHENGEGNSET

Columns and labels:
[1] = molecular target: αvβ6 integrin, immobilized (UniProt P06756); experiment: ELISA on immobilized αvβ6, rabbit anti-MFE detection
[2] = molecular target: αvβ6 integrin, immobilized (UniProt P06756); experiment: ELISA on immobilized αvβ6, 20 µg/ml

B1: NFEVP1 (scFv)
scFv: QVKLQQSGAELVRSGTSVKLSCTASGFNIKDSYMHWLRQGPEQGLEWIGWIDPENGDTEYAPKFQGKATFTTDTSSNTAYLQLSSLTSEDTAVYYCNEGTPTAVPNLRGDLQVLAQKVAGPYPFDYWGQGTTVTVSSGGGGSGGGGSGGGGSENVLTQSPAIMSASPGEKVTITCSASSSVSYMHWFQQKPGTSPKLWIYSTSNLASGVPARFSGSGSGTSYSLTISRMEAEDAATYYCQQRSSYPLTFGAGTKLELKRAAAHHHHHH
binding [1]: binds | binding [2]: binds
